Measurements taken from patent US20130123349A1.
These are yes or no findings as the source states them, for the method shown. Some entries that bind do so weakly or less than the wild type.

Chains of the proteins cited; added tags and fusions are not shown. Residues count along the entry.
UniProt Q9HCN6, residues 21-267: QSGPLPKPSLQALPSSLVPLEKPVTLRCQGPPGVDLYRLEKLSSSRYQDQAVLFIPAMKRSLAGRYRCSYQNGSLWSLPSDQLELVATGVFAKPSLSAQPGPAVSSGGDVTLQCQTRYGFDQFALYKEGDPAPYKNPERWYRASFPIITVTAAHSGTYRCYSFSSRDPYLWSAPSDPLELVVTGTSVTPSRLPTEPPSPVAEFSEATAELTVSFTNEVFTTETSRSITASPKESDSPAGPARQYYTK

How the values were obtained:
recombinant GPVI [1] = target: recombinant GPVI (UniProt Q9HCN6); assay: SPR, convulxin injected over immobilized GPVI
recombinant GPVI [2] = target: recombinant GPVI (UniProt Q9HCN6); assay: SPR, convulxin mixed with 500 nM Aegyptin and injected over immobilized GPVI
recombinant GPVI [3] = target: recombinant GPVI (UniProt Q9HCN6); assay: SPR, convulxin (2.5, 5, 10 nM) over immobilized GPVI

Measured: binding

B1: convulxin (ligand)
chain 1: GLHCPSDWYYYDQHCYRIFNEEMNWEDAEWFCTKQAKGAHLVSIKSAKEADFVAWMVTQNIEESFSHVSIGLRVQNKEKQCSTKWSDGSSVSYDNLLDLYITKCSLLKKETGFRKWFVASCIGKIPFVCKFPPQC
chain 2: GFCCPSHWSSYDRYCYKVFKQEMTWADAEKFCTQQHTGSHLVSFHSTEEVDFVVKMTHQSLKSTFFWIGANNIWNKCNWQWSDGTKPEYKEWHEEFECLISRTFDNQWLSAPCSDTYSFVCKFEA
binds: recombinant GPVI [1] | recombinant GPVI [2] | recombinant GPVI [3]
